Measured values as given in paper PMC11840745.
These are yes or no findings as the source states them, for the method shown. Binding seen in cells or lysates may run through a third protein. Some results given as binding are weak or reduced against the parent protein; the word gives no strength.

Sequences of proteins named here, by UniProt entry; tags and fusion partners are left off.
UniProt Q9JIP4: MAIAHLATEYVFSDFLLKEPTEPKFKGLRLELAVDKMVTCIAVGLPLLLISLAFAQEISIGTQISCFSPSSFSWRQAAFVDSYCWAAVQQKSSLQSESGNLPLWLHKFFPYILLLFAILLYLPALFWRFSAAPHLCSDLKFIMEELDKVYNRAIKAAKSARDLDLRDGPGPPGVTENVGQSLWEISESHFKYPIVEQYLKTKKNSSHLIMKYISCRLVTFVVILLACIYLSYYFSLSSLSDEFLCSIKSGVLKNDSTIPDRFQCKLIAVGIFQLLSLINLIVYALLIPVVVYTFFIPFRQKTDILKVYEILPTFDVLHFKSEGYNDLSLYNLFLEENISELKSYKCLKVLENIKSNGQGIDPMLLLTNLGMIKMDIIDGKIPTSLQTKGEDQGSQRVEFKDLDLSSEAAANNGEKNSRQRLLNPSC

Molecular target: T1, P2X7 receptor (mouse (endogenous in RAW264.7)) (UniProt Q9Z1M0)
T1 sequence: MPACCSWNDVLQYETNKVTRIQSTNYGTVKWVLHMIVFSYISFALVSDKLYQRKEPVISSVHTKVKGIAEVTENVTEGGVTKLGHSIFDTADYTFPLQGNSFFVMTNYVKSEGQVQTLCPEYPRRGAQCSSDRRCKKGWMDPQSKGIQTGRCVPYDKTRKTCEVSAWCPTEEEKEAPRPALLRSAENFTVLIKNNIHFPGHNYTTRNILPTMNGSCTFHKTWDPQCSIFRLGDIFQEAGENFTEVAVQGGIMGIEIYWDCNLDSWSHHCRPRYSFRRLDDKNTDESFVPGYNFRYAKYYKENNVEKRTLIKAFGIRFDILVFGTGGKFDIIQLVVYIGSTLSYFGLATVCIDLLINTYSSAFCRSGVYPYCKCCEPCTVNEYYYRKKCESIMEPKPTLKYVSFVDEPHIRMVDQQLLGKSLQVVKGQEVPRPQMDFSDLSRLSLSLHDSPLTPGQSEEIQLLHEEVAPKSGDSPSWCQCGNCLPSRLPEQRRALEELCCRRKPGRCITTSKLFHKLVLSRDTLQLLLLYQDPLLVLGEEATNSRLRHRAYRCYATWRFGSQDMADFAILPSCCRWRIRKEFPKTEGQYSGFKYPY
Test: co-IP; RAW cells incubated with Poly (I:C), ATP or Poly (I:C) + 10Panx1 for 30 min; lysate (250 µg protein, 1% NP-40, 150 mM NaCl) precipitated with mouse anti-P2X7R antibody and protein A/G agarose; western blot for Panx1

binding: binds
Substance: Pannexin1 (from UniProt Q9JIP4 1-426)
